The campaign covered roughly 340,000 compounds. About 170 (0.05%) were called active. Inconclusive means that the source gave no clear call. Such entries were picked first, then a sample of the others. Calls follow the shape of the dose curve; as a rule, active = well fitted inhibition curve with a large enough effect in the signal ratio, with a control signal flat (not every such curve was filed as active); inconclusive = small, poorly fitted or top-dose-only effect, or effect the other way, or a change in a side signal; inactive = flat fitted curve, though single readings scatter; the % refers to the signal ratio. Potencies of inconclusive entries are doubtful fits and often do not repeat.
Assay: qHTS Assay to Find Inhibitors of Chronic Active B-Cell Receptor Signaling;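 as to activity change, negative = inhibition: plate controls were basal doxycycline-induced cells for no effect and cells given 10 µM MG132 for full effect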
Details: ABC-DLBCL IkBa-CBG/CBR reporter, luminescence ratio (green luciferase fused to IkBa over red control in TMD8 lymphoma cells), 4 h; activity change, negative = inhibition: at 46.1 µM (top of the series)
Method in brief: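 Cell line TMD8 (human ABC DLBCL), stably expressing tet-inducible CBG68-IkBa fusion and CBR; IMDM/0.5% FBS; cpd up to 46 uM; dox induction, 4 h, 37C/5% CO2; dual luminescence; green/red ratio; MG132 control.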
Potency is read from the fitted curve at half-maximal effect.

Structure (SMILES)	activity change, negative = inhibition	Potency
Cc1cccc(NC(=O)N2CCCC2C(=O)NCc2cccs2)c1 (stereo not given)	inconclusive: -14.1%	
COc1ccc(C(=O)O/N=C(\N)c2cccc(C)c2)cc1OC		inconclusive: 25.1 µM [falling, single point]
CCN(CC)CCNC(=O)c1cc2c(=O)n(CC)c3ccccc3c2s1	inconclusive: 0.738%	
O=C(Cc1cccc2ccccc12)NC(NC(=S)Nc1ccccc1Cl)C(Cl)(Cl)Cl (stereo not given)	inactive: -5.38%	
CCOC(=O)c1c(NC(=O)C(C)N2CCN(C(=O)c3ccco3)CC2)sc2c1CCCC2 (stereo not given)	inconclusive: 0.243%	
CCN(CC(=O)Nc1cc(S(=O)(=O)N2CCCCC2)ccc1C)Cc1ccccc1		inconclusive: 29.1 µM [rising, single point]
CCC(C)n1cnc2c(=O)oc3ccccc3c21 (stereo not given)		inconclusive: 14.6 µM [falling, single point]
CC(NC(=O)NC(=O)c1ccc(Cl)cc1Cl)C1CC1 (stereo not given)	inconclusive: 13.1%	
CC(C)(C)C(=O)/C(=C/c1cccc([N+](=O)[O-])c1)n1cncn1	inconclusive: 16%	
CCOC(=O)c1ccc(NC(=O)c2c(NCc3cc(OC)c(OC)cc3OC)sc3c2CCCC3)cc1	inconclusive: 6.03%	
CC1C/C(=C\c2cccnc2)C(=O)/C(=C/c2cccnc2)C1 (stereo not given)		inconclusive: 0.731 µM [falling, full curve, poor fit]
CCOc1ccc(-c2nonc2NC(=O)COc2ccccc2)cc1	inactive: 4.69%	
CCc1ccc(NC(=O)CN(c2ccc(OC)cc2)S(=O)(=O)c2c(C)nn(C)c2C)cc1	inactive: 2.22%	
COc1cccc(Cl)c1NC(=O)N1CCc2c([nH]c3ccccc23)C1C(F)(F)F (stereo not given)		inconclusive: 6.31 µM [falling, full curve]
CC(=O)Nc1cccc(OCC(=O)Nc2ccc(F)cc2)c1	inconclusive: -4.09%	
Cc1ccc(S(=O)(=O)/C(C#N)=C/c2c(N3CCOCC3)nc3ccccn3c2=O)cc1	inconclusive: 7.05%	
COc1ccc(C(=O)COC(=O)CCc2nc3ccccc3[nH]c2=O)cc1Br	inconclusive: 10.4%	
O=C(Nc1ccc(S(=O)(=O)N2CCCCC2)cc1)c1ccc(Cl)nc1	inconclusive: 8.32%	
O=C(OCc1ccccc1)c1ccc(Br)o1	inconclusive: 20.6%	
O=c1c2cc(NC(=S)NC3CCCCC3)ccc2nc2n1CCCCC2	inactive: 7.08%	
Cc1ccc(C)c(NC(=O)c2cc3ccccn3n2)c1		inconclusive: 18.4 µM [falling, partial curve]
NC(=O)N/N=C/c1ccccc1OC(=O)c1ccccc1Br	inactive: -1.11%	
Cc1cccc(NC(=O)c2ccc([N+](=O)[O-])cc2Cl)n1		inconclusive: 3.66 µM [rising, full curve, poor fit]
C=CCn1c(C)cc(C(=O)COC(=O)CNC(=O)c2ccccc2)c1C	inconclusive: 3.05%	
O=C(Nc1ccc(Cl)cc1)C(Cl)C(=O)c1ccccc1 (stereo not given)		inconclusive: 25.1 µM [falling, single point]
COC(=O)CSc1ccc2nnc(CCNS(=O)(=O)c3ccccc3)n2n1	inconclusive: 18.9%	
COC(=O)CN(n1cnnc1)S(=O)(=O)c1ccc(C)cc1	inconclusive: -2.37%	

Structure (SMILES)	activity change, negative = inhibition	Potency
COc1ccc(CN2CCNC(=O)C2CC(=O)O)c(OC)c1 (stereo not given)	inconclusive: 9.74%	
Cc1ccccc1-c1ccccc1CN1[C@@H](C(C)C)COCCS1(=O)=O	inconclusive: 4.97%	
O=C(Cc1ccccc1)Nc1ccc2oc(-c3ccncc3)nc2c1	inactive: 16.7%	
Cc1sc2nc(-c3ccccn3)[nH]c(=O)c2c1-c1ccccc1		inconclusive: 31.6 µM [cytotoxic, single point]
Cc1cc(C2(c3ccc(O)c(C)c3)OC(=O)c3ccccc32)ccc1O		inconclusive: 29.1 µM [falling, partial curve, poor fit]
O=C(N=Nc1c(O)n(Cc2ccccc2)c2ccccc12)c1ccc(O)cc1	inconclusive: -18.7%	
COc1cccc(Nc2nnc(SCC(=O)Nc3sccc3C(N)=O)s2)c1		inconclusive: 10 µM [falling, partial curve]
COc1ccc(C(=O)NCC(=O)N=Nc2c(O)n(Cc3ccccc3)c3ccccc23)cc1OC		inconclusive: 4.11 µM [rising, full curve, poor fit]
CCCCn1c(-c2cccc3ccccc23)nc2cc3[nH]c(=O)c(C(C)C)nc3cc21	inconclusive: 19.1%	
O=C(O)c1ccc(S(=O)(=O)c2ccc([N+](=O)[O-])cc2[N+](=O)[O-])cc1		inconclusive: 35.5 µM [falling, single point]
CC1CCCCN1CCNC(=O)c1ccc2c(c1)N(Cc1ccccc1)C(=O)c1ccccc1S2(=O)=O (stereo not given)	inconclusive: -7.62%	
COc1ccc(CNC(=O)C/C(C)=N/NC(=O)COc2cccc(C)c2)cc1		inconclusive: 35.5 µM [falling, single point]
Cc1ccc(OCC(=O)N/N=C\c2cccs2)c([N+](=O)[O-])c1	inconclusive: 5.74%	
O=C(NCS(=O)(=O)c1ccccc1)c1ccccc1	inconclusive: 4.78%	
Cc1cccc(-n2ncc3c(NCc4cccs4)ncnc32)c1	inconclusive: -0.698%	
COC(=O)c1ccc(CN2CCN(CC=C(C)C)C(CCO)C2)cc1 (stereo not given)		inconclusive: 35.5 µM [falling, single point]
COCCCN1C(=O)N(c2ccc(F)cc2)C(=O)C1CC(=O)Nc1ccc(OC)cc1 (stereo not given)	inconclusive: -1.76%	
O=C(NNC(=O)c1ccc(Cl)cc1Cl)c1cccs1	inconclusive: -15.1%	
O=C(N/N=C/c1ccc[nH]1)c1sc2ccccc2c1Cl		inconclusive: 25.1 µM [falling, partial curve]
Cc1ccc(C(=O)n2nc(-n3cccc3)c3c(C)cc(C)nc32)cc1	inconclusive: -15.6%	
O=C(CNC(=O)c1ccc(F)cc1)c1ccc(Cl)cc1		inconclusive: 35.5 µM [rising, single point]
Cc1cc(C(=O)N/N=C(\CCC(=O)O)c2cccs2)c2ccccc2n1	inconclusive: -16.2%	
COc1cccc(COC(=O)Nc2ccccc2F)c1		inconclusive: 31.6 µM [rising, single point]
Cc1nn2cnnc2c(C)c1Cc1ccc(Cl)cc1	inconclusive: -3.31%	
COc1ccc(-c2csc3nc[nH]c(=O)c23)cc1OC	inactive: -11.6%	
Cc1cc(C(C)(C)C)c(O)c(C)c1CC1=NCCN1	inactive: -2.66%	
COc1ccc(N2CC(O)(c3ccc(OC(F)F)cc3)[N+]3=C2CCCC3)cc1 (stereo not given)	inactive: -0.629%	

Structure (SMILES)	activity change, negative = inhibition	Potency
N/C(=N\O)c1ccc(Cl)cc1Cl	inactive: -11.4%	
O=C(NCCCCc1ccccc1)C1CC(c2ccccc2C(F)(F)F)=NO1 (stereo not given)	inactive: -9.84%	
CC1C=CC(C)C(C(=O)O)C1C(=O)O (stereo not given)	inactive: 1.38%	
Cc1cc(C)n(C(=O)c2ccc(C)c(S(=O)(=O)N3CCCC3)c2)n1	inconclusive: 5.97%	
Cc1ccc(SCc2cc(=O)n3[nH]c(C)nc3n2)cc1		inconclusive: 20.6 µM [falling, partial curve]
Cc1ccccc1NC(=O)/C=C1\SC(=O)NC1=O	inconclusive: -27.4%	
Oc1ccc(N=Nc2n[nH]c(-c3ccccc3)n2)cc1		inconclusive: 4.11 µM [falling, partial curve]
Cc1c(C(=O)Nc2ccccn2)oc2ccccc12	inconclusive: -13.7%	
CCC(C)(C)C1CCC2(CC1)NC(=O)N(CC(=O)N(C)CC(=O)Nc1ccccc1C(F)(F)F)C2=O (stereo not given)	inconclusive: 11.9%	
O=c1c2ccccc2nc2ccccn12		inconclusive: 35.5 µM [rising, partial curve, poor fit]
Cc1ccc(-c2cc(=O)c3cc(C)ccc3[nH]2)cc1	inconclusive: -12.3%	
CC1CCN(C(=O)c2cc(-c3ccc4c(c3)OCO4)on2)CC1		inconclusive: 22.4 µM [falling, single point]
COc1cccc(Nc2ncnc3nc[nH]c23)c1		inconclusive: 18.4 µM [falling, partial curve]
COc1ccc2ccccc2c1/C=N/NC(=S)Nc1cc(S(=O)(=O)N2CCOCC2)ccc1N1CCOCC1	inactive: -6.44%	
O=C(O)Cc1sc(NC2CCCCC2)nc1-c1ccc(Cl)cc1	inactive: 1.19%	
COc1ccc(CCNC(C(=O)Nc2cc(C)cc(C)c2)c2ccccc2)cc1 (stereo not given)	inconclusive: 4.06%	
Cc1ccc(C(=O)N2CCCC(c3nc4c(nnn4Cc4ccccc4)c(=O)[nH]3)C2)cc1 (stereo not given)		inconclusive: 23.1 µM [falling, partial curve, poor fit]
CCOc1cccc(C(=O)NC(=S)Nc2ccc3c(c2)OCCO3)c1		inconclusive: 22.4 µM [cytotoxic, partial curve]
Cc1ccc(C(=O)N2CCC(C(=O)c3ccc(Cl)cc3)CC2)cc1	inactive: -0.611%	
CCN(CC)C(=O)CSc1nnc(COc2cccc(C)c2)n1C	inactive: -12.3%	
Cc1ccc(-c2ccc3nnc(SCC(=O)NCC4CCCO4)n3n2)cc1 (stereo not given)		inconclusive: 3.16 µM [falling, partial curve, poor fit]
Cc1cc(C)n2nc(C(=O)N/N=C/c3cn(C)nc3C)nc2n1	inconclusive: 5.22%	
CCCCn1c2ccc(F)cc2c2nnc(SCCN3CCOCC3)nc21	inconclusive: -6.35%	
CN(CCCNC(=O)c1cn(C)c2ccc(S(=O)(=O)N(C)C)cc2c1=O)c1ccccc1	inconclusive: 0.173%	
O=C(NC1CCCCC1)Oc1ccccc1	inconclusive: -22.1%	
CCN(Cc1ccccc1)c1ccc(N=Nc2nn(C)c(C)c2[N+](=O)[O-])cc1	inconclusive: 11.1%	

Some of these compounds in order of heavy-atom count, largest number first.
Structure (SMILES)	activity change, negative = inhibition	Potency
COc1cccc(Cl)c1NC(=O)N1CCc2c([nH]c3ccccc23)C1C(F)(F)F (stereo not given)		inconclusive: 6.31 µM [falling, full curve]
Cc1ccc(-c2ccc3nnc(SCC(=O)NCC4CCCO4)n3n2)cc1 (stereo not given)		inconclusive: 3.16 µM [falling, partial curve, poor fit]
Cc1cc(C2(c3ccc(O)c(C)c3)OC(=O)c3ccccc32)ccc1O		inconclusive: 29.1 µM [falling, partial curve, poor fit]
CCOc1ccc(-c2nonc2NC(=O)COc2ccccc2)cc1	inactive: 4.69%	
O=C(CNC(=O)c1ccc(F)cc1)c1ccc(Cl)cc1		inconclusive: 35.5 µM [rising, single point]
O=C(NNC(=O)c1ccc(Cl)cc1Cl)c1cccs1	inconclusive: -15.1%	
